From paper PMC10998217
No constants are given. Whether binding was seen depends on the method and setting. Binding seen in cells or lysates may run through a third protein. Some entries that bind do so weakly or less than the wild type. For some assays here: Tags and fused reporters may be left off the sequences shown. One block for each binder: values may come before it.

Amino acid sequences for entries named in this document (tags omitted).
UniProt Q9Y5T5: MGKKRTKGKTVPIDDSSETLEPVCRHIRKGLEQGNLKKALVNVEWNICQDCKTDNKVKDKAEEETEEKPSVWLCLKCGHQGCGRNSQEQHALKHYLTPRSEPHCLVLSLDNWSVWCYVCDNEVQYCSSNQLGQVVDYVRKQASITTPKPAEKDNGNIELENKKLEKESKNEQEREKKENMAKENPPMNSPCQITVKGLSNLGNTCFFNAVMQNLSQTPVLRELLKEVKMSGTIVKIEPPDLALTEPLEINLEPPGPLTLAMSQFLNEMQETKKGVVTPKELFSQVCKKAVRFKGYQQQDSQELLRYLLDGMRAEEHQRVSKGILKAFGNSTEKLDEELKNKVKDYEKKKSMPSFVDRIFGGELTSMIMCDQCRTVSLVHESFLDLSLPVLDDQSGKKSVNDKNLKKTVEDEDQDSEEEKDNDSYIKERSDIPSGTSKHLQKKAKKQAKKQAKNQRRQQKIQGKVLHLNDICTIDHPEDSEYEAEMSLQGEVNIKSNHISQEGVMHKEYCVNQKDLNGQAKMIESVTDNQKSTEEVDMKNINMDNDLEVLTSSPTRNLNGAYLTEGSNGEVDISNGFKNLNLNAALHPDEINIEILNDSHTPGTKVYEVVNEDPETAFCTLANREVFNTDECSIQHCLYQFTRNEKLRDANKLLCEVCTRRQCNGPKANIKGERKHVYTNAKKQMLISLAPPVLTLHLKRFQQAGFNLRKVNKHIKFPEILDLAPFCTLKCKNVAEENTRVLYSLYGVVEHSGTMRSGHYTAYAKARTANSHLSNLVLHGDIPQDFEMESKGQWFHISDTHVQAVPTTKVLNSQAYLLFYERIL

What was measured:
[1] = biological target: Flag-USP16 (ubiquitin-specific peptidase 16) (UniProt Q9Y5T5); assay: co-IP; HeLa cells cotransfected with Myc-OGT and Flag-USP16; lysates immunoprecipitated with anti-Flag antibody, blotted with anti-Myc
[2] = biological target: USP16, endogenous (ubiquitin-specific peptidase 16) (human (endogenous in HeLa)) (UniProt Q9Y5T5); assay: co-IP; endogenous proteins; HeLa cells untreated (asynchronous) or synchronized to M phase by nocodazole; lysates immunoprecipitated with anti-USP16 antibodies, immunoblotted with anti-OGT

binding [1]: binds
B1: Myc-OGT (O-GlcNAc transferase) (enzyme, UniProt O15294 1-1046)
chain: MASSVGNVADSTEPTKRMLSFQGLAELAHREYQAGDFEAAERHCMQLWRQEPDNTGVLLLLSSIHFQCRRLDRSAHFSTLAIKQNPLLAEAYSNLGNVYKERGQLQEAIEHYRHALRLKPDFIDGYINLAAALVAAGDMEGAVQAYVSALQYNPDLYCVRSDLGNLLKALGRLEEAKACYLKAIETQPNFAVAWSNLGCVFNAQGEIWLAIHHFEKAVTLDPNFLDAYINLGNVLKEARIFDRAVAAYLRALSLSPNHAVVHGNLACVYYEQGLIDLAIDTYRRAIELQPHFPDAYCNLANALKEKGSVAEAEDCYNTALRLCPTHADSLNNLANIKREQGNIEEAVRLYRKALEVFPEFAAAHSNLASVLQQQGKLQEALMHYKEAIRISPTFADAYSNMGNTLKEMQDVQGALQCYTRAIQINPAFADAHSNLASIHKDSGNIPEAIASYRTALKLKPDFPDAYCNLAHCLQIVCDWTDYDERMKKLVSIVADQLEKNRLPSVHPHHSMLYPLSHGFRKAIAERHGNLCLDKINVLHKPPYEHPKDLKLSDGRLRVGYVSSDFGNHPTSHLMQSIPGMHNPDKFEVFCYALSPDDGTNFRVKVMAEANHFIDLSQIPCNGKAADRIHQDGIHILVNMNGYTKGARNELFALRPAPIQAMWLGYPGTSGALFMDYIITDQETSPAEVAEQYSEKLAYMPHTFFIGDHANMFPHLKKKAVIDFKSNGHIYDNRIVLNGIDLKAFLDSLPDVKIVKMKCPDGGDNADSSNTALNMPVIPMNTIAEAVIEMINRGQIQITINGFSISNGLATTQINNKAATGEEVPRTIIVTTRSQYGLPEDAIVYCNFNQLYKIDPSTLQMWANILKRVPNSVLWLLRFPAVGEPNIQQYAQNMGLPQNRIIFSPVAPKEEHVRRGQLADVCLDTPLCNGHTTGMDVLWAGTPMVTMPGETLASRVAASQLTCLGCLELIAKNRQEYEDIAVKLGTDLEYLKKVRGKVWKQRISSPLFNTKQYTMELERLYLQMWEHYAAGNKPDHMIKPVEVTESA

binding [2]: binds
B2: OGT, endogenous (O-GlcNAc transferase) (enzyme, UniProt O15294 1-1046)
chain: B1 chain
